The values are deposited in ChEMBL (CHEMBL3988442, “University of Dundee, Small-Polar-MMV Screening Library” (2021)).

Each number is a percent effect as filed. The controls that fix the scale are not given in the record; negative values are as filed. The compounds are a random part of those screened.

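Assay of Toxoplasma gondii numbers, read through their beta-galactosidase reporter with a colour substrate. Compounds at 50 µM. The record gives no direction; the compounds picked for IC50 retests had high values, so higher reads as fewer parasites. Size under these conditions: about 18,000 compounds, about 170 of them at 50% or above in at least one test.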

| structure | percent effect |
|---|---|
| `CC(=O)c1ccc(-n2ccnn2)cc1` | -0.7593 |
| `COc1ccc(NC(=O)C2=CCOCC2)cc1OC` | -4.014 |
| `Cc1cc(=O)n(CCN(C)CC(O)CO)c(=O)[nH]1` (stereo not shown) | 39.46 |
| `C=C(C)CN(CC)C(=O)C1CCCN(C(=O)C(C)C)C1` (stereo not shown) | 0.297 |
| `CC(=O)Nc1ccc(N2CCN(S(C)(=O)=O)CC2)cc1` | 4.409 |
| `CNCC1(O)CCC1` | -6.333 |
| `COCCNC(=O)N1CCCN(C(=O)C(C)(C)C)CC1` | 2.47 |
| `OC1CCN(Cc2nnnn2-c2ccccc2Br)CC1` | -6.247 |
| `O=C(CCn1cnnc1)Nc1cccc(F)c1` | 1.732 |
| `O=C1COc2cc(C(=O)NCc3ccco3)ccc2N1` | -5.147 |
| `CCn1cc(S(=O)(=O)N2CCNCC2)c(C)n1` | -15.85 |
| `NCCCOC1CCN(C(=O)Cc2ccsc2)CC1` | -20.28 |
| `CCSCC(C)N(C)C(=O)[C@@H](N)CC` (stereo partly shown) | -4.865 |
| `CC(=O)c1ccc(S(=O)(=O)NCC(C)(C)N)cc1` | 6.538 |
| `Cn1cc(C(=O)NCCc2nnc3ccccn23)cn1` | -15.69 |
| `COCCN1CCN(Cc2nc3ccccc3o2)CC1` | -6.043 |
| `CNC(=O)CCC(=O)N1CCC(c2ccccc2)=N1` | 10.45 |
| `CCCC(C)NC(=O)COc1ccccc1C(N)=O` (stereo not shown) | -7.442 |
| `NC(=O)C1CCCN(C(=O)COCc2ccccc2)C1` (stereo not shown) | 11.81 |
| `CC(C)(C)OC(=O)N1CCCN(CCCO)CC1` | -4.761 |
| `CNCc1nc(C(F)(F)F)no1` | -1.353 |
| `CC(C)(C)CCS(=O)(=O)N1CCCC1C(N)=O` (stereo not shown) | 9.372 |
| `COc1ncccc1N(C)C(=O)c1ccoc1Br` | 6.766 |
| `O=C(Nc1ccon1)c1n[nH]cc1I` | 39.51 |
| `O=S1(=O)CCN(c2ccnc3ccccc23)CC1` | 1.519 |
| `OC[C@H]1CCCCN1CC(O)COCc1ccco1` (stereo partly shown) | 3.231 |
| `CNC(=O)C1CN(c2ccc(F)cn2)CCO1` (stereo not shown) | -17.72 |
| `Cc1ncc(CSC2CCN(C)C2=O)s1` (stereo not shown) | 31.29 |
| `CNc1cc(C(=O)NCCNc2cccnc2)ccn1` | 8.735 |
| `NC1CCN(C(=O)c2ccccn2)C1` (stereo not shown) | 14.28 |
| `CC1(C(=O)NCC(CO)Cc2cccs2)CCNCC1` (stereo not shown) | 15.57 |
| `CSCc1ccc(C(=O)NCCc2ncnn2C)o1` | -6.191 |
| `CC(=O)c1ccc(C(=O)N(C)CC2CCCOC2)cc1` (stereo not shown) | 15.74 |
| `CCNC(=O)Cc1nc(-c2ccncc2)n[nH]1` | 7.535 |
| `COCC(NC(=O)CNc1ccccc1)C(C)C` (stereo not shown) | 18.12 |
| `CSCCC(NC(N)=O)C(=O)NCCc1ccccc1` (stereo not shown) | 1.589 |
| `Cc1nc(N)sc1C(=O)NC(c1cccnc1)C(C)C` (stereo not shown) | -8.253 |
| `Cc1cc(C)n(CC(=O)NCCc2ccc[nH]2)n1` | -10.28 |
| `CN(Cc1cccc(C#N)c1)Cc1ccnc(N)c1` | 100.1 |
| `COC(=O)c1ccc(OCC(N)=O)c(Br)c1` | -10.6 |
| `Nc1ccc(CN2CCNC(=O)C2)cn1` | -6.762 |
| `CC[C@@H](CO)NC(=O)NCC(C)c1ccsc1` (stereo partly shown) | -4.933 |
| `O=C(CSCc1ccccn1)N1CCCOCC1` | 6.52 |
| `CN(Cc1ccc(S(=O)(=O)N(C)C)o1)CC1CC1` | 0.7495 |
| `C[C@H](O)c1ccc(-n2cccn2)c(F)c1` | 0.2771 |
| `OCc1c[nH]c2cccc(F)c12` | -3.677 |
| `c1ccc(N2CCC(N3CCCC3)CC2)nc1` | -3.751 |
| `CC(C)S(=O)(=O)N(C)CC(=O)N(C)Cc1cccs1` | 1.678 |
| `CNC(=O)c1ccc(CN)cn1` | 8.178 |
| `CC(NC(=O)CN1CCCC1)c1nc2ccccc2[nH]1` (stereo not shown) | -1.036 |
| `CCc1cc(N2CCNCC2)ncn1` | 20.35 |
| `Cc1c(Cl)cccc1NC(=O)CSc1nnc[nH]1` | -6.056 |
| `Cc1ccc(C(=O)NCC(C)(C)N(C)C)o1` | -8.113 |
| `O=C(c1cncc(Br)c1)N1CCCC1c1ccc[nH]1` (stereo not shown) | -13.53 |
| `Cc1ncncc1C(=O)NCCS(=O)(=O)N(C)C` | -5.121 |
| `CCN(C(=O)Cc1cccs1)C(C)CS(C)(=O)=O` (stereo not shown) | -21.94 |
| `CC(C)(C)NCCNC(=O)CCc1ccccn1` | -11.03 |
| `Cn1cc(-c2csc(CCN3CCOC3=O)n2)cn1` | -0.04294 |
| `Cc1nc(C)c(C(=O)NCCN2CCCCC2)o1` | 5.448 |
| `O=C(NCC1CCS(=O)(=O)C1)c1cc2ccccc2[nH]1` (stereo not shown) | 3.095 |
| `CNC(C)(C)CNC(=O)Nc1ccccn1` | 0.2183 |
| `CCC(NCCCC#N)c1noc(C)n1` (stereo not shown) | -6.543 |

For reference, 7 entries once more:

Result for Cn1cc(C(=O)NCCc2nnc3ccccn23)cn1 was -15.69%.
Result for NC1CCN(C(=O)c2ccccn2)C1 (stereo not shown) was 14.28%.
Result for OC1CCN(Cc2nnnn2-c2ccccc2Br)CC1 was -6.247%.
Result for Cc1ncncc1C(=O)NCCS(=O)(=O)N(C)C was -5.121%.
Result for CCc1cc(N2CCNCC2)ncn1 was 20.35%.
Result for CCNC(=O)Cc1nc(-c2ccncc2)n[nH]1 was 7.535%.
Result for CNCc1nc(C(F)(F)F)no1 was -1.353%.